The list shows a part of the results. Hit calls seldom repeat between salt and free forms of one compound.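 Kinases were expressed as nanoluciferase fusions in K562 cells and luminescence was read every 4 h between 2 and 18 h as percent of control, DMSO set to 100% and a positive control to 0%. A time point counts as decreased when the signal drops significantly (2 sigma). The hit call is the authors' own, does not follow from the count of time points alone, and its rule is not shown.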
Columns and labels:
Experiment in all cases: kinase-Nluc reporter destabilization hit call (1 = scored as downregulated) (binary); higher = compound decreases kinase abundance
Details in all cases: K562; 2-18 h
EGFR = EGFR (UniProt P00533)
EGFR_G719S = EGFR_G719S (UniProt P00533)
EGFR_G719S_T790M = EGFR_G719S_T790M (UniProt P00533)
EGFR_L718V = EGFR_L718V (UniProt P00533)
EGFR_L858R = EGFR_L858R (UniProt P00533)
EGFR_L861Q = EGFR_L861Q (UniProt P00533)
EGFR_T790M = EGFR_T790M (UniProt P00533)
EPHA2 = EPHA2 (UniProt P29317)
ERBB3 = ERBB3 (UniProt P21860)
[1] = biological target: ERBB4_R711C (clone: ERBB4_mut) (UniProt Q15303)
ERN1 = ERN1 (UniProt O75460)
FGFR1 = FGFR1 (UniProt P11362)
FGFR2 = FGFR2 (UniProt P21802)
FGFR3 = FGFR3 (UniProt P22607)
FGR = FGR (UniProt P09769)
FLT3 = FLT3 (UniProt P36888)
FYN = FYN (UniProt P06241)
GSK3A = GSK3A (UniProt P49840)
HER2 = HER2 (UniProt P04626)
INSRR = INSRR (UniProt P14616)

Protein sequences, listed by entry. Tags and fused reporters are not part of them. Lines headed by an entry give the natural chain unless they say otherwise; changes in a name come on top.
UniProt O75460: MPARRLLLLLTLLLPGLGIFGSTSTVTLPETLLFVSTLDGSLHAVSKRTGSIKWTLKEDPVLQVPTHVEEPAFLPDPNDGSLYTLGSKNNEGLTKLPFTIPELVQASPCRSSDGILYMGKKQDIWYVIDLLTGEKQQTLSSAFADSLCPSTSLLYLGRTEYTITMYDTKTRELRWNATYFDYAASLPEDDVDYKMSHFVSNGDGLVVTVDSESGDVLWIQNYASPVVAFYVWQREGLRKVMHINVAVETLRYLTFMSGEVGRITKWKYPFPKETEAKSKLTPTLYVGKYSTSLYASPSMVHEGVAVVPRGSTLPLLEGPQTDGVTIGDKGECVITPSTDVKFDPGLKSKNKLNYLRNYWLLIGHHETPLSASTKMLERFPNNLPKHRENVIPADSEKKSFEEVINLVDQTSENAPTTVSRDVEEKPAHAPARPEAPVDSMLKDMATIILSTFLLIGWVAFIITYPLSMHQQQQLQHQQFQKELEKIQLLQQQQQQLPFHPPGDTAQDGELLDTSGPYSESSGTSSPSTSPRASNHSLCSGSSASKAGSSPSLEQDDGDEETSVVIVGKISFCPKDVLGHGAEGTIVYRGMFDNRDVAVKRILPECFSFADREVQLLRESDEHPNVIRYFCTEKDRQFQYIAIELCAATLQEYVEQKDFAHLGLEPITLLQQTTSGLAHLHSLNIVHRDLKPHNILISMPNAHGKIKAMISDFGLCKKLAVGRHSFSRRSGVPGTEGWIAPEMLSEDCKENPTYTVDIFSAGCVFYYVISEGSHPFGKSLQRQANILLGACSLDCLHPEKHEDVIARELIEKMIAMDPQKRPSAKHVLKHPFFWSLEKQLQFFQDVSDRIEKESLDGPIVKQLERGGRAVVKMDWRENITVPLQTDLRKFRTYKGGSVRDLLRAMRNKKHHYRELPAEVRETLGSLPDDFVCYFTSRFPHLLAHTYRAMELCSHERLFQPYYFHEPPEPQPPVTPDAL
UniProt P11362, whole entry, looked up: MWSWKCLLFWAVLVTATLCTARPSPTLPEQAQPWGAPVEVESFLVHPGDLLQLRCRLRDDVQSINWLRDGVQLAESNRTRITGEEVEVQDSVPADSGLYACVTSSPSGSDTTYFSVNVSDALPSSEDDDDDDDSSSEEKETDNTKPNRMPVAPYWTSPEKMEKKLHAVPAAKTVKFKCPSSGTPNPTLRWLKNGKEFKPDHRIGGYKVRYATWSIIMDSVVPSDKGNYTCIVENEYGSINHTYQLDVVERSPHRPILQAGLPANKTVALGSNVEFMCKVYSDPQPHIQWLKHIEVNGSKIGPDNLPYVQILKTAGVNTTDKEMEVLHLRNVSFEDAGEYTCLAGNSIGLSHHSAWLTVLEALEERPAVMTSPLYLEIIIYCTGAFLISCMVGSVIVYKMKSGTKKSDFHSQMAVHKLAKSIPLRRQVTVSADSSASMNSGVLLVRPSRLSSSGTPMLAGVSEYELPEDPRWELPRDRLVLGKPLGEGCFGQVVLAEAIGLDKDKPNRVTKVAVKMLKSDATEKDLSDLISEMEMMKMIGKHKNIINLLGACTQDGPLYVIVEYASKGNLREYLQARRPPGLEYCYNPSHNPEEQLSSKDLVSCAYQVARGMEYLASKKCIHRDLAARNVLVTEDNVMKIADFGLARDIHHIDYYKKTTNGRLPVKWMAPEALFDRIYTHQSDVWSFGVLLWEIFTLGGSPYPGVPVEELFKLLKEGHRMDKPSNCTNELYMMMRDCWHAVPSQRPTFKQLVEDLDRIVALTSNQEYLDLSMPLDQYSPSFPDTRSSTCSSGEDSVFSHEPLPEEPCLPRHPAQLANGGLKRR
UniProt P21802, whole entry, looked up: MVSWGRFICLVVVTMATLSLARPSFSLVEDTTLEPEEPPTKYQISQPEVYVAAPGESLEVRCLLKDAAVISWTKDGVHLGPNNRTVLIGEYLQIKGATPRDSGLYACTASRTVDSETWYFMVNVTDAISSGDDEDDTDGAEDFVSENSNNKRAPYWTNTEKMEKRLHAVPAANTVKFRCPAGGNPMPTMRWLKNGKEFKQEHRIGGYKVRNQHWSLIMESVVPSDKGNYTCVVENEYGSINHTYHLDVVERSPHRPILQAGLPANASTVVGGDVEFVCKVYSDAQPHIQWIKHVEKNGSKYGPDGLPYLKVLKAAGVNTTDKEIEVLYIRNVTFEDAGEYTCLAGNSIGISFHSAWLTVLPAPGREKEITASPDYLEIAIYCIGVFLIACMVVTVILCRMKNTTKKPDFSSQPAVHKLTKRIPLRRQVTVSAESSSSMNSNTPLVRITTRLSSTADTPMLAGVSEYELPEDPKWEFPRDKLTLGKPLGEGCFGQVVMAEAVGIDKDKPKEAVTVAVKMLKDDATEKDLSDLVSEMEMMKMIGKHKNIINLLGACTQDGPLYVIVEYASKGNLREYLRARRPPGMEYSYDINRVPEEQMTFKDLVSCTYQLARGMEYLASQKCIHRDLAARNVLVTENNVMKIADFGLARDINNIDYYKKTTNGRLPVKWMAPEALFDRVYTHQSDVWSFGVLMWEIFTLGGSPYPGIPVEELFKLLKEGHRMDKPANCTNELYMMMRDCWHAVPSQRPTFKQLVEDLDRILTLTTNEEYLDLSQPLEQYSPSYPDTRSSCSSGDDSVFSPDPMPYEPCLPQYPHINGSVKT
UniProt P22607, whole entry, looked up: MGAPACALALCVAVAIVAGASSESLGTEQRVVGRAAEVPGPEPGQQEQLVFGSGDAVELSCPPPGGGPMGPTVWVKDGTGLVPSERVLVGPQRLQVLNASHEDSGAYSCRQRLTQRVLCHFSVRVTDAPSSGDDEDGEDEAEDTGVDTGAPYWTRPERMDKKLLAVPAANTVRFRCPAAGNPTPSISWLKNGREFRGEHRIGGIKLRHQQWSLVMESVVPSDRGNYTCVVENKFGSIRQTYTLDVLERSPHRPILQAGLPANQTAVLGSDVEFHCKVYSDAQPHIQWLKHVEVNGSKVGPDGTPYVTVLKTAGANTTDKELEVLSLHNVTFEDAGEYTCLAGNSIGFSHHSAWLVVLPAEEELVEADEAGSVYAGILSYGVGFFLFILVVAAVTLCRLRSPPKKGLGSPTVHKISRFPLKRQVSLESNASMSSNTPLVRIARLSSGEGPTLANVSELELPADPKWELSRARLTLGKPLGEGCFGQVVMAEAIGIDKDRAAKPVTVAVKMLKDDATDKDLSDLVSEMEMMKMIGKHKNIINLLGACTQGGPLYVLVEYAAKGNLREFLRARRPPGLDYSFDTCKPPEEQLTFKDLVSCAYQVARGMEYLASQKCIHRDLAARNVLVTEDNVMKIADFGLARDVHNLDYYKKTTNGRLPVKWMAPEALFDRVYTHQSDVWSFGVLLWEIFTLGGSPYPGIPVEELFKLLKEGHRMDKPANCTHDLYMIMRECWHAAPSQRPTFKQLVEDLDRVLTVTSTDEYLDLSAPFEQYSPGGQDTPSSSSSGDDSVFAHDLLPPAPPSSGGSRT
UniProt P06241, whole entry, looked up: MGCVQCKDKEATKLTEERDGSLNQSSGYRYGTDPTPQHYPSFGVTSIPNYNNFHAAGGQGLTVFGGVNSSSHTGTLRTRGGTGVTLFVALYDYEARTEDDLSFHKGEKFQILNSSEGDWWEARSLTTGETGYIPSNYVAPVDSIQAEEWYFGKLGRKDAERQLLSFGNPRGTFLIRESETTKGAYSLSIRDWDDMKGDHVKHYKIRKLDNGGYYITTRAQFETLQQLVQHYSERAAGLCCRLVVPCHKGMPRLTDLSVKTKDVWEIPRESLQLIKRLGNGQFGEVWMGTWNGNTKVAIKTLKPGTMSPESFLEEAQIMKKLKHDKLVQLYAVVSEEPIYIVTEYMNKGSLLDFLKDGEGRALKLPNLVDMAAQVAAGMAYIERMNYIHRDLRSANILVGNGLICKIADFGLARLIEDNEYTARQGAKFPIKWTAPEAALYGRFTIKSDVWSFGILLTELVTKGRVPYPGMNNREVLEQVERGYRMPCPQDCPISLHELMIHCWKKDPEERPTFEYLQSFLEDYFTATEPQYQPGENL
UniProt P49840: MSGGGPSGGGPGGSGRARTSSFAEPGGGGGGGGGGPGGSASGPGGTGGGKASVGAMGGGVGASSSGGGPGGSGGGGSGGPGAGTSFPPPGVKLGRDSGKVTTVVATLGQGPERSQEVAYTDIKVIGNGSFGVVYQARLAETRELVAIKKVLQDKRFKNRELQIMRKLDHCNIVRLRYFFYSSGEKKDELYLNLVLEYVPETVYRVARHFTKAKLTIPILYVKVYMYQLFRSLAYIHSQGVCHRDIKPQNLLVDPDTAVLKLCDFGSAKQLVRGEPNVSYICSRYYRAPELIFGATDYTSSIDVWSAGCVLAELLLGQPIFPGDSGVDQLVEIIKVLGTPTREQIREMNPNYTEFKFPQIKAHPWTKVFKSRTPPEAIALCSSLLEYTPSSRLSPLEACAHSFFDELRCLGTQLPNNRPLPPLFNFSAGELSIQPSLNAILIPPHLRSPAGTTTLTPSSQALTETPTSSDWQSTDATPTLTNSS
UniProt P14616: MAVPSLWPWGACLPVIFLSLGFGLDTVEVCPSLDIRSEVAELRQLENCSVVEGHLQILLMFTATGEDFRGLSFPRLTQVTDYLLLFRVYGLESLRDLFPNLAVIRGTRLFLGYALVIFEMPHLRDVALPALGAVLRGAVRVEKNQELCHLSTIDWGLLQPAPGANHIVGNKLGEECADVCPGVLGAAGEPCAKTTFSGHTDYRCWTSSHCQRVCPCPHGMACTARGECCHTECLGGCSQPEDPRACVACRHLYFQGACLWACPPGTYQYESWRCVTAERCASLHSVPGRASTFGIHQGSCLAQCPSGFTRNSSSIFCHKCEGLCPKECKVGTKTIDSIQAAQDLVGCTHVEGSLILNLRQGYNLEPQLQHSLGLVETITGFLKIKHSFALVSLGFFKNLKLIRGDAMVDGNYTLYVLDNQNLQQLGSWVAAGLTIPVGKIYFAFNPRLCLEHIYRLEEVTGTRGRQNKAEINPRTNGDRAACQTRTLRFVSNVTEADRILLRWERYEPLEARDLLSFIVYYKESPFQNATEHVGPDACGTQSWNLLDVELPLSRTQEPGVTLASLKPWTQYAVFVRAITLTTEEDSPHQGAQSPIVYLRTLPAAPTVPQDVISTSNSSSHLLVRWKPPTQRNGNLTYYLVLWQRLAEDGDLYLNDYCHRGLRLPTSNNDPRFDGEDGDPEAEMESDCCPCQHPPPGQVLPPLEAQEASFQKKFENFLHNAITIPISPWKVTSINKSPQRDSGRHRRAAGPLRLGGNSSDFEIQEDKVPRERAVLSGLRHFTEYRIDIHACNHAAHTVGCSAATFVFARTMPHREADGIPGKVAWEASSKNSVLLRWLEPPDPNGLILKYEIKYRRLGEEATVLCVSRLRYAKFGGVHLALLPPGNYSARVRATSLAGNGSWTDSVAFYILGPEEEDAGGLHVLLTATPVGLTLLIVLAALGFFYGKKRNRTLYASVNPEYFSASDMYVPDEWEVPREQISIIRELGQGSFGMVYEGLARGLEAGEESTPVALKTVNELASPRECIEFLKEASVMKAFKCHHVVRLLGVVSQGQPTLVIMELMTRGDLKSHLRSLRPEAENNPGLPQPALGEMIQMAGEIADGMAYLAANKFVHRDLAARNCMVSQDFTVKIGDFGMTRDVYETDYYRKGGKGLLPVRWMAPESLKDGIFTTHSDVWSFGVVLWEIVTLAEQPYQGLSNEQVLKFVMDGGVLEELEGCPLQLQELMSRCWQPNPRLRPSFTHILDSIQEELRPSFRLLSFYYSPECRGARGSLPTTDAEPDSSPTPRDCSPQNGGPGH

SMILES | kinase-Nluc reporter destabilization hit call (EGFR) | kinase-Nluc reporter destabilization hit call (EGFR_G719S) | kinase-Nluc reporter destabilization hit call (EGFR_G719S_T790M) | kinase-Nluc reporter destabilization hit call (EGFR_L718V) | kinase-Nluc reporter destabilization hit call (EGFR_L858R) | kinase-Nluc reporter destabilization hit call (EGFR_L861Q) | kinase-Nluc reporter destabilization hit call (EGFR_T790M) | kinase-Nluc reporter destabilization hit call (EPHA2) | kinase-Nluc reporter destabilization hit call (ERBB3) | kinase-Nluc reporter destabilization hit call [1] | kinase-Nluc reporter destabilization hit call (ERN1) | kinase-Nluc reporter destabilization hit call (FGFR1) | kinase-Nluc reporter destabilization hit call (FGFR2) | kinase-Nluc reporter destabilization hit call (FGFR3) | kinase-Nluc reporter destabilization hit call (FGR) | kinase-Nluc reporter destabilization hit call (FLT3) | kinase-Nluc reporter destabilization hit call (FYN) | kinase-Nluc reporter destabilization hit call (GSK3A) | kinase-Nluc reporter destabilization hit call (HER2) | kinase-Nluc reporter destabilization hit call (INSRR)
Cc1cccc2c3c(ccc12)C(=O)C1=C(OCC1C)C3=O (stereo not given) [Dihydroisotanshinone I] (2.5 µM) | inactive: 0 | inactive: 0 | inactive: 0 | inactive: 0 | inactive: 0 | inactive: 0 | inactive: 0 | inactive: 0 | inactive: 0 | inactive: 0 | inactive: 0 | inactive: 0 | inactive: 0 | inactive: 0 | inactive: 0 | inactive: 0 | inactive: 0 | inactive: 0 | inactive: 0 | inactive: 0
COc1cc2ncnc(Nc3ccc(F)c(Cl)c3)c2cc1NC(=O)/C=C/CN1CCCCC1 [Dacomitinib] (10 µM) | inactive: 0 | inactive: 0 | inactive: 0 | inactive: 0 | inactive: 0 | inactive: 0 | inactive: 0 | inactive: 0 | inactive: 0 | inactive: 0 | inactive: 0 | inactive: 0 | inactive: 0 | inactive: 0 | inactive: 0 | inactive: 0 | inactive: 0 | inactive: 0 | active: 1 | inactive: 0
O=C1NC(=O)/C(=C/c2ccc3nccc(-c4ccncc4)c3c2)S1 (10 µM) | inactive: 0 | inactive: 0 | inactive: 0 | inactive: 0 | inactive: 0 | inactive: 0 | inactive: 0 | inactive: 0 | inactive: 0 | inactive: 0 | inactive: 0 | inactive: 0 | inactive: 0 | inactive: 0 | inactive: 0 | inactive: 0 | inactive: 0 | inactive: 0 | inactive: 0 | inactive: 0
C=CC(=O)N1C[C@H](COc2nc(Nc3cnn(C)c3)nc3[nH]cc(Cl)c23)[C@@H](OC)C1 (2.5 µM) | inactive: 0 | inactive: 0 | inactive: 0 | inactive: 0 | inactive: 0 | inactive: 0 | inactive: 0 | inactive: 0 | inactive: 0 | inactive: 0 | inactive: 0 | inactive: 0 | inactive: 0 | inactive: 0 | inactive: 0 | inactive: 0 | inactive: 0 | inactive: 0 | inactive: 0 | inactive: 0
CC(=O)N1CCC(c2cc(-c3ccc(NC(=O)c4cccn(-c5ccc(F)cc5)c4=O)cc3F)c3c(N)ncnn23)CC1 (0.5 µM) | inactive: 0 | inactive: 0 | inactive: 0 | inactive: 0 | inactive: 0 | inactive: 0 | inactive: 0 | inactive: 0 | inactive: 0 | inactive: 0 | inactive: 0 | inactive: 0 | inactive: 0 | inactive: 0 | inactive: 0 | inactive: 0 | inactive: 0 | inactive: 0 | inactive: 0 | inactive: 0
O=Nc1c2[nH]c3ccccc3nc-2c2ccccc12 [IQ-1S (free acid)] (2.5 µM) | inactive: 0 | inactive: 0 | inactive: 0 | inactive: 0 | inactive: 0 | inactive: 0 | inactive: 0 | inactive: 0 | inactive: 0 | inactive: 0 | inactive: 0 | inactive: 0 | inactive: 0 | inactive: 0 | inactive: 0 | inactive: 0 | inactive: 0 | inactive: 0 | inactive: 0 | inactive: 0
Nc1nc(N)c2nc(-c3cccc(O)c3)cnc2n1 (10 µM) | inactive: 0 | inactive: 0 | inactive: 0 | inactive: 0 | inactive: 0 | inactive: 0 | inactive: 0 | inactive: 0 | inactive: 0 | inactive: 0 | inactive: 0 | inactive: 0 | inactive: 0 | inactive: 0 | inactive: 0 | inactive: 0 | inactive: 0 | inactive: 0 | inactive: 0 | inactive: 0
N#Cc1c2nc3ccccc3nc2n2ccc(NC(=O)c3cccs3)cc12 (10 µM) | inactive: 0 | inactive: 0 | inactive: 0 | inactive: 0 | inactive: 0 | inactive: 0 | inactive: 0 | inactive: 0 | inactive: 0 | inactive: 0 | inactive: 0 | inactive: 0 | inactive: 0 | inactive: 0 | inactive: 0 | inactive: 0 | inactive: 0 | inactive: 0 | inactive: 0 | inactive: 0
Cc1cc(C)nc(NS(=O)(=O)c2ccc(NC(=S)NC(=O)COc3ccc(Br)cc3Cl)cc2)n1 (2.5 µM) | inactive: 0 | inactive: 0 | inactive: 0 | inactive: 0 | inactive: 0 | inactive: 0 | inactive: 0 | inactive: 0 | inactive: 0 | inactive: 0 | inactive: 0 | inactive: 0 | inactive: 0 | inactive: 0 | inactive: 0 | inactive: 0 | inactive: 0 | inactive: 0 | inactive: 0 | inactive: 0
CN(C)c1nc2c(Br)c(Br)c(Br)c(Br)c2[nH]1 (10 µM) | inactive: 0 | inactive: 0 | inactive: 0 | inactive: 0 | inactive: 0 | inactive: 0 | inactive: 0 | inactive: 0 | inactive: 0 | inactive: 0 | inactive: 0 | inactive: 0 | inactive: 0 | inactive: 0 | inactive: 0 | inactive: 0 | inactive: 0 | inactive: 0 | inactive: 0 | inactive: 0
Cc1ccc(Oc2nc3cc(-c4ccc(-c5ccccc5)cc4)c(Cl)cc3[nH]2)cc1C(=O)O (10 µM) | inactive: 0 | inactive: 0 | inactive: 0 | inactive: 0 | inactive: 0 | inactive: 0 | inactive: 0 | inactive: 0 | inactive: 0 | inactive: 0 | inactive: 0 | inactive: 0 | inactive: 0 | inactive: 0 | inactive: 0 | inactive: 0 | inactive: 0 | inactive: 0 | inactive: 0 | inactive: 0
C#Cc1cccc(Nc2ncnc3cc(OC)c(OCCCCCCC(=O)NO)cc23)c1 (2.5 µM) | inactive: 0 | inactive: 0 | inactive: 0 | inactive: 0 | inactive: 0 | inactive: 0 | inactive: 0 | inactive: 0 | inactive: 0 | inactive: 0 | inactive: 0 | inactive: 0 | inactive: 0 | inactive: 0 | inactive: 0 | inactive: 0 | inactive: 0 | inactive: 0 | inactive: 0 | inactive: 0
COc1ccc(-c2c(C)nn3c(NCCN4CCOCC4)cc(C)nc23)cc1OC (10 µM) | inactive: 0 | inactive: 0 | inactive: 0 | inactive: 0 | inactive: 0 | inactive: 0 | inactive: 0 | inactive: 0 | inactive: 0 | inactive: 0 | inactive: 0 | inactive: 0 | inactive: 0 | inactive: 0 | inactive: 0 | inactive: 0 | inactive: 0 | inactive: 0 | inactive: 0 | inactive: 0
C=CC(=O)N1C(=O)CC(c2ccc(F)cc2)Sc2ccccc21 (stereo not drawn) [GSK-3β inhibitor 3] (10 µM) | inactive: 0 | inactive: 0 | inactive: 0 | inactive: 0 | inactive: 0 | inactive: 0 | inactive: 0 | inactive: 0 | inactive: 0 | inactive: 0 | inactive: 0 | inactive: 0 | inactive: 0 | inactive: 0 | inactive: 0 | inactive: 0 | inactive: 0 | inactive: 0 | inactive: 0 | inactive: 0
COc1ccc(S(=O)(=O)NCc2ccc(C(=O)NCCc3ccc(Cl)cn3)cc2)cc1 (10 µM) | inactive: 0 | inactive: 0 | inactive: 0 | inactive: 0 | inactive: 0 | inactive: 0 | inactive: 0 | inactive: 0 | inactive: 0 | inactive: 0 | inactive: 0 | inactive: 0 | inactive: 0 | inactive: 0 | inactive: 0 | inactive: 0 | inactive: 0 | inactive: 0 | inactive: 0 | inactive: 0

Two compounds picked at random from those above, as already listed:
SMILES | kinase-Nluc reporter destabilization hit call (EGFR) | kinase-Nluc reporter destabilization hit call (EGFR_G719S) | kinase-Nluc reporter destabilization hit call (EGFR_G719S_T790M) | kinase-Nluc reporter destabilization hit call (EGFR_L718V) | kinase-Nluc reporter destabilization hit call (EGFR_L858R) | kinase-Nluc reporter destabilization hit call (EGFR_L861Q) | kinase-Nluc reporter destabilization hit call (EGFR_T790M) | kinase-Nluc reporter destabilization hit call (EPHA2) | kinase-Nluc reporter destabilization hit call (ERBB3) | kinase-Nluc reporter destabilization hit call [1] | kinase-Nluc reporter destabilization hit call (ERN1) | kinase-Nluc reporter destabilization hit call (FGFR1) | kinase-Nluc reporter destabilization hit call (FGFR2) | kinase-Nluc reporter destabilization hit call (FGFR3) | kinase-Nluc reporter destabilization hit call (FGR) | kinase-Nluc reporter destabilization hit call (FLT3) | kinase-Nluc reporter destabilization hit call (FYN) | kinase-Nluc reporter destabilization hit call (GSK3A) | kinase-Nluc reporter destabilization hit call (HER2) | kinase-Nluc reporter destabilization hit call (INSRR)
Nc1nc(N)c2nc(-c3cccc(O)c3)cnc2n1 (10 µM) | inactive: 0 | inactive: 0 | inactive: 0 | inactive: 0 | inactive: 0 | inactive: 0 | inactive: 0 | inactive: 0 | inactive: 0 | inactive: 0 | inactive: 0 | inactive: 0 | inactive: 0 | inactive: 0 | inactive: 0 | inactive: 0 | inactive: 0 | inactive: 0 | inactive: 0 | inactive: 0
Cc1ccc(Oc2nc3cc(-c4ccc(-c5ccccc5)cc4)c(Cl)cc3[nH]2)cc1C(=O)O (10 µM) | inactive: 0 | inactive: 0 | inactive: 0 | inactive: 0 | inactive: 0 | inactive: 0 | inactive: 0 | inactive: 0 | inactive: 0 | inactive: 0 | inactive: 0 | inactive: 0 | inactive: 0 | inactive: 0 | inactive: 0 | inactive: 0 | inactive: 0 | inactive: 0 | inactive: 0 | inactive: 0

— the supplement of paper PMC12823440, “Inhibitors supercharge kinase turnover through native proteolytic circuits” (Nature, 2025)
